For two molecules, binding results are on record in paper PMC12748969.

The chains behind the UniProt entries cited, without tags or fusion partners.
UniProt P19785: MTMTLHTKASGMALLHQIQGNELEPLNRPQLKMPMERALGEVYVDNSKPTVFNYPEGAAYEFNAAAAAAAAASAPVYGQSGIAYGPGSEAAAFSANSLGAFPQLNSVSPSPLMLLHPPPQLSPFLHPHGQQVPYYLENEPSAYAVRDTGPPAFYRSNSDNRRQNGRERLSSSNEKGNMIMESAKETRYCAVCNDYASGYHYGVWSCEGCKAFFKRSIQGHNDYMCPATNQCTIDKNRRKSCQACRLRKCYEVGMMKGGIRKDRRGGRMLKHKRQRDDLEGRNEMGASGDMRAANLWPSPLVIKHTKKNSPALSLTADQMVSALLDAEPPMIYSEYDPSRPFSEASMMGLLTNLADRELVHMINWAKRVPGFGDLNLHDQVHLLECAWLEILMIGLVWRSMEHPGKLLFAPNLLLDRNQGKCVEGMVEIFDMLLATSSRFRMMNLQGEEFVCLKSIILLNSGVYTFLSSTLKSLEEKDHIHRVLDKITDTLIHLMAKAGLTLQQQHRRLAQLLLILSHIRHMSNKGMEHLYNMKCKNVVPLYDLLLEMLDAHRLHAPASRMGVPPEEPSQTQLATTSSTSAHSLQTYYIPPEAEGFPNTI
UniProt Q00175: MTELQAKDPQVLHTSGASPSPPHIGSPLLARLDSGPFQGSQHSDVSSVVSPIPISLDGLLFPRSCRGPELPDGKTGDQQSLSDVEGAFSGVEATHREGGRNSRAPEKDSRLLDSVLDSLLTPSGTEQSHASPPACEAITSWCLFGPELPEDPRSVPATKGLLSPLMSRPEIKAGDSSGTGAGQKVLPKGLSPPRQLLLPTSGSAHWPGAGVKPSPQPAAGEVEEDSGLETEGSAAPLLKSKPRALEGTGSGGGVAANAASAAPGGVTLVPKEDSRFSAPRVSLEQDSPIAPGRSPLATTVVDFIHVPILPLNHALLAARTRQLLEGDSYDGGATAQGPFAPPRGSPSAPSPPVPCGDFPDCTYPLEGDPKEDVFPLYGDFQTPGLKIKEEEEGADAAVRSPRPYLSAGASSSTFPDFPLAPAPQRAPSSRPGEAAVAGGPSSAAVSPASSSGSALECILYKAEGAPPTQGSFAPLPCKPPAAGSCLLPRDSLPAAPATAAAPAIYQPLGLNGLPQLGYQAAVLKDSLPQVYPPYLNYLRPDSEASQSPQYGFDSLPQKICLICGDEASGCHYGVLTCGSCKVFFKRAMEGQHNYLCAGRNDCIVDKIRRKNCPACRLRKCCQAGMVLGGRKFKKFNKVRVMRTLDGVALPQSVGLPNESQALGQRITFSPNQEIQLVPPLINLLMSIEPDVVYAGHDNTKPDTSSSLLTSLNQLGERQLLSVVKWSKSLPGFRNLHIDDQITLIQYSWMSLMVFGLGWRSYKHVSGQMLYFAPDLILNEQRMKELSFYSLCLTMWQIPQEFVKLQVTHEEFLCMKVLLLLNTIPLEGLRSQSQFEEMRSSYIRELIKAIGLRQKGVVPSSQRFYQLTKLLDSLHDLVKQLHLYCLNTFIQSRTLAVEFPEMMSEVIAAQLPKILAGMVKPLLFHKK

These are yes or no findings as the source states them, for the method shown. In cells and extracts the contact can be indirect. Some binding calls cover weakened binding; strength is not graded here.

Assay [1] deals with oestrogen receptor alpha (ERα) (mouse (endogenous in cortical tissue of 3xTg mice)) (UniProt P19785). Briefly: co-IP; RIPA lysates of cortical tissue of 3xTg mice, vehicle or VCD (Cycle 7) and with or without P4 supplementation (Cycle 14); Dynabeads Protein G, immunoblot; which protein was precipitated not given.
Assay [2] deals with T1, oestrogen-related receptor alpha (ERRα) (mouse (endogenous in prefrontal cortex tissue and primary cortical neurons)) (UniProt O08580).
T1 sequence: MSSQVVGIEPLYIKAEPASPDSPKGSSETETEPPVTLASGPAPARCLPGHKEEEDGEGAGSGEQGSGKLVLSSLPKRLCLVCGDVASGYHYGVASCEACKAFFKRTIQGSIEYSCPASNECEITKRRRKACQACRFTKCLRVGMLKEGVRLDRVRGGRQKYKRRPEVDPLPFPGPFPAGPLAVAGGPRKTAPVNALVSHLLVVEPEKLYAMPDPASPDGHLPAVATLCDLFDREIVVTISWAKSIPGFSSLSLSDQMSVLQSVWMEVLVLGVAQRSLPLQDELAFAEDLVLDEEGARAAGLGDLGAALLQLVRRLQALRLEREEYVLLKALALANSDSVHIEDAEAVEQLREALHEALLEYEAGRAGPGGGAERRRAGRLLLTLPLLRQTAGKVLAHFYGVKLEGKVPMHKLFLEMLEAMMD
Description: co-IP; RIPA lysates of mouse primary neurons after treatments (E2 with or without P4, mifepristone or MPP dihydrochloride, as for the other panels of Fig. 4); Dynabeads Protein G, immunoblot; which protein was precipitated not given. (In general: A western blot detects proteins with antibodies after separation by electrophoresis.)

Assay [3] concerns the target T1, oestrogen-related receptor alpha (ERRα) (mouse (endogenous in prefrontal cortex tissue and primary cortical neurons)). Briefly: co-IP; RIPA lysates of prefrontal cortex tissue of vehicle- or VCD-treated mice; 1 mg lysate precleared with control IgG and Dynabeads Protein G, antibody overnight at 4 °C, immunoblot; which protein was precipitated not given.

As to “progesterone receptor (PR) (from UniProt Q00175 1-926)”, the binding entry in assay [1] is listed as “binds”.

B1: PGC1α (ERRα coactivator, encoded by PPARGC1A) (protein, UniProt O70343 1-797)
chain: MAWDMCSQDSVWSDIECAALVGEDQPLCPDLPELDLSELDVNDLDTDSFLGGLKWCSDQSEIISNQYNNEPANIFEKIDEENEANLLAVLTETLDSLPVDEDGLPSFDALTDGAVTTDNEASPSSMPDGTPPPQEAEEPSLLKKLLLAPANTQLSYNECSGLSTQNHAANHTHRIRTNPAIVKTENSWSNKAKSICQQQKPQRRPCSELLKYLTTNDDPPHTKPTENRNSSRDKCASKKKSHTQPQSQHAQAKPTTLSLPLTPESPNDPKGSPFENKTIERTLSVELSGTAGLTPPTTPPHKANQDNPFKASPKLKPSCKTVVPPPTKRARYSECSGTQGSHSTKKGPEQSELYAQLSKSSGLSRGHEERKTKRPSLRLFGDHDYCQSLNSKTDILINISQELQDSRQLDFKDASCDWQGHICSSTDSGQCYLRETLEASKQVSPCSTRKQLQDQEIRAELNKHFGHPCQAVFDDKSDKTSELRDGDFSNEQFSKLPVFINSGLAMDGLFDDSEDESDKLSYPWDGTQPYSLFDVSPSCSSFNSPCRDSVSPPKSLFSQRPQRMRSRSRSFSRHRSCSRSPYSRSRSRSPGSRSSSRSCYYYESSHYRHRTHRNSPLYVRSRSRSPYSRRPRYDSYEAYEHERLKRDEYRKEHEKRESERAKQRERQKQKAIEERRVIYVGKIRPDTTRTELRDRFEVFGEIEECTVNLRDDGDSYGFITYRYTCDAFAALENGYTLRRSNETDFELYFCGRKQFFKSNYADLDTNSDDFDPASTKSKYDSLDFDSLLKEAQRSLRR
In the case of B1, the binding entry in assay [2] and in assay [3] was “binds” throughout.
